# Results are given in words; binding and its absence hold for the method and conditions named. Some entries that bind do so weakly or less than the wild type. Sequences can lack the tags named with a protein.
# Amino acid sequences for entries named in this document (tags omitted). A change or cut given only in a name is not applied to a line headed by its entry.
# UniProt Q15116: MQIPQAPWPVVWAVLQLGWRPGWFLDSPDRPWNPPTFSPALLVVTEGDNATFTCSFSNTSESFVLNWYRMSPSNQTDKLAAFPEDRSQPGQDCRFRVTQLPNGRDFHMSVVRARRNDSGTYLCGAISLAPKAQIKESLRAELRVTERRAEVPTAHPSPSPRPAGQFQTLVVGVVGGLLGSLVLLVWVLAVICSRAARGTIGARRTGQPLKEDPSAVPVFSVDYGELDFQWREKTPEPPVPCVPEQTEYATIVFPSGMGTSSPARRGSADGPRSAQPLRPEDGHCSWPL
# Target: T1, human PD-1 expressed on cells (human, UniProt Q15116 25-288)
# T1 construct: the transgene of the cell lines is not tied to it by name; also called hPD-1; CHO.hPD-1
# Experiment: flow cytometry ligand competition on CHO cells over-expressing human PD-1
# Experimental: Ligand competition assays were performed on human PD-1 over-expressing CHO cells. A Nanobody dilution series was prepared in assay buffer: PBS/10% FBS/0.05% sodium azide. […] 2×10⁴ cells/well were seeded in V-bottom 96-well plates and resuspended in 200 μL/well of the Nanobody/ligand dilution. After 90 minutes incubation at 4° C., the cells were washed with 100 μL/well assay buffer and resuspended in 100 μL/well PE-labeled Goat anti-human IgG (Southern Biotech, 2043-09). Samples were incubated for 30 minutes at 4° C., washed, and resuspended in 100 μL/well of 5 nM TOPRO3 (LifeTechnologies, T3606) solution before analysis on FACS CANTO II (BD).
binder,measurement,value
"F023701190 (1PD102C12 (E1D, L11V, A14P, W52aV, A74S, K83R, I89L, W100aF)-HIS6) (VHH, not shown: small tags and cut ends) VHH: DVQLVESGGGVVQPGGSLRLSCAASGSIASIHAMGWFRQAPGKEREFVAVITVSGGITYYADSVKGRFTISRDNSKNTVYLQMNSLRPEDTALYYCAGDKHQSSFYDYWGQGTLVTVSS",binding,binds

# From patent US20190330339A1 (published 2019)
